Reference: patent publication US8613910B2, “Flavonoids as synergists for enhancing the action of self-tanning substances” (Merck Patent GmbH, priority 2005, dated 2013)

Test: Maillard test: DHA with lysine with or without quercetin in ethylene glycol/water
Procedure: Trial solutions of DHA with lysine with or without quercetin were prepared in an ethylene glycol/water mixture.
It is thus assumed that quercetin is able to prevent the rapid decomposition of DHA in the presence of oxygen.
Maillard test systems used are described in B. Nguyen et al., J. Invest. Dermatol. 120 (2003), 655-661.

SMILES | colour of the reaction solution (absence of oxygen) | colour of the reaction solution (presence of oxygen, without quercetin) | colour of the reaction solution (presence of oxygen, quercetin present)
O=C(CO)CO [DHA, 1,3-Dihydroxyacetone] | dark-brown solution | yellow colour | –
O=c1c(O)c(-c2ccc(O)c(O)c2)oc2cc(O)cc(O)c12 [quercetin, 3,3′,4′,5,7-pentahydroxyflavone] | – | – | changed to brown
